± gives the standard deviation. The list shows a part of the results. The uncertainty is large for many entries.
System: EfPiwi piRISC loaded with L1MC piRNA (26 nt)
Assay: pre-steady-state target cleavage rate (min^-1); guide: L1MC piRNA 5'p-UAACUAAAUACUAUGCAAGCUGUAGG; MIWI and MILI are mouse PIWI proteins and EfPiwi is from a freshwater sponge; tags in brackets are library labels; higher = faster piRNA-guided slicing of the target
Conditions: auxiliary factor: 500 nM Ephydatia muelleri Gtsf1
Summary of the method: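 With or without 500 nM GTSF1 partner protein, 1 nM active affinity-purified piRISC carrying one synthetic guide was mixed with 0.1 nM transcribed, DNA-blocked target RNA library in HEPES–potassium acetate buffer at 33 °C for 0–8 or 0–960 min. Uncleaved targets were sequenced and normalised to depth and to weakly complementary targets, three trials were pooled, and k3 was capped at 0.0001 min^-1. The pre-steady-state cleavage rate came from a burst-and-steady-state fit.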

Row | Sequence | pre-steady-state target cleavage rate
1 | UCCUCCUACAGCUUGCAUUGUAUUUACUUA | 0.00243 ± 0.0028
2 | UCCUGGAUCAGCUUGCAUAGUAUUUAGAUA | 0.00499 ± 0.0022
3 | UCCUGGAACAGCUUGCAUAGUAAUUAGUUA | 0.00814 ± 0.0027
4 | UCCUGGAUGUGCUUGCCUAGUAUUUAGUUA | 0.00934 ± 0.0027
5 | UCCUCCUACACGAUGCAUAGUAUUUAGUUA | 0.0593 ± 0.017
6 | UCCUCCUACAGCAUGCAUAGUAUAUAGUUA | 0.00519 ± 0.0032
7 | UCCUCCUACAGCUUGCAUAGUAAUUUAGUUA | 0.00821 ± 0.0033
8 | UCCUGGUACAGCUUGCAUAGUAUUUAGUCUA | 0.00521 ± 0.0031
9 | UCCUGGAUGUCGAACCAUAGUAUAUAGUUA | 0.00012 ± 0.019
10 | UCCUGGAUCAGCUGUGCAUAGUAUUUAGUUA | 0.0791 ± 0.016
11 | UCCUGGAUCAGCUUGCAUUGUAUUUUGUUA | 0.00121 ± 0.0042
12 | UCCUGGAUGUCCUUGCAUAGUAUUUAGUUA [g2:g19:cont:t1A] | 0.00824 ± 0.003
13 | UCCUCCUACAGCUUGCAUUGUAUUUAGUAA | 0.00648 ± 0.0029
14 | UCCUCGUACACCUUGCAUAGUAUUUAGUUA | 0.1 ± 0.029
15 | UCCUGGAACAGCUUGCAUAGAAAUUAGUUA | 0.00226 ± 0.0033
16 | UCCUGCUACAACUUGCAUAGUAUUUAGUUA | 0.00776 ± 0.0029
17 | UCCUGGAUCAGCUUCAUAGUAUUUAGUUA | 0.00789 ± 0.0033
18 | UCCUGGAACAGCUUGCAUAGUAUUGUAGUUA | 0.00741 ± 0.0027
19 | UCCUGGAACAGGUUGCAUAGUAAUUAGUUA | 0.0061 ± 0.0024
20 | UCCUGGAACAGCUUGCAUUCUAUUUAGUUA | 0.000684 ± 0.006
21 | UCCUCCUACUCCUUGCAUAGUAUUUACAAA | 0.0029 ± 0.0034
22 | UCCUGGAUCAGCUUGCAUAGUAUCUAGUUA | 0.0167 ± 0.005
23 | UCCUGGAUCAGCUAGCAUAGUUUUUAGUUA | 0.00174 ± 0.0036
24 | UCCUCCUACAGGCUUGCAUAGUAUUUAGUUA | 0.0234 ± 0.0078
25 | UCCUGGAUGUCGAUGCAUACUAUUUAGUAA | 0.00114 ± 0.006
26 | UCCUGGAACAGCUGGCAUAGUAUUUAGUUA | 0.00699 ± 0.0026
27 | UCCUCCUACACCAUGCAUAGUAUUUAGUUA | 0.145 ± 0.05
28 | UCCUGGAUGAGCUUGCAUAGUAUUUUGUUA | 0.00491 ± 0.0017
29 | UCCUGGAUCAGCUAGCAUUGUAUUUAGUUA | 0.00245 ± 0.0025
30 | UCCUGCUUCAGGUUGCAUAGUAUUUAGUUA | 0.0664 ± 0.015

Some of the entries so far, as a markdown table.

| Row | Sequence | pre-steady-state target cleavage rate |
| --- | --- | --- |
| 17 | UCCUGGAUCAGCUUCAUAGUAUUUAGUUA | 0.00789 ± 0.0033 |
| 18 | UCCUGGAACAGCUUGCAUAGUAUUGUAGUUA | 0.00741 ± 0.0027 |
| 19 | UCCUGGAACAGGUUGCAUAGUAAUUAGUUA | 0.0061 ± 0.0024 |

Same assay, conditions: auxiliary factor: none (no Gtsf1)

Row | Sequence | pre-steady-state target cleavage rate
31 | UCCUGGAUGUGCUUGCAUGGUAUUUAGUUA | 0.000667 ± 0.02
32 | UCCUGGUACUGCUUGCAUUGUAUUUAGUUA | 0.00047 ± 0.022
33 | UCCUGGAUGAGCUAGCAUAGUUUUUAGUUA | 0.000163 ± 0.049
34 | UCCUGGAUGUCGAACGUAUGUAUCUUAGUUA | 0.000147 ± 0.032
35 | UCCUGGAUGUCGAACCAAAGUAUAUAGUUA | 0.000122 ± 0.051
36 | UCCUGGAUGUCCUUGCAUAGUAUUUAGUUU [g2:g19:cont:t1U] | 0.00145 ± 0.0068
37 | UCCUGGAUGUCGAACGUUAGUAUUUAGUGA | 0.000304 ± 0.015
38 | UCCUGGAACUGCUUGCAUAGUAAUUAGUUA | 0.00182 ± 0.0071
39 | UCCUGCUACAGCUUGCAUAGUGAUUUAGUUA | 0.000627 ± 0.011
40 | UCCUGGAUGAGCUUGCAUAGUAUUCAGUUA | 0.000386 ± 0.026
